Data on one molecule can be found in patent publication US12667546B2, “Methods for manipulating cell state transitions in cancer” (AGENCY FOR SCIENCE, TECHNOLOGY AND RESEARCH, priority 2018, dated 2026).

The subject of assay [1] is SERPINE1prom-Luc reporter in NAMEC8 cells. The experiment in a line: Dual-Glo luciferase assay of SERPINE1prom-Luc reporter (FF/Ren). The format is cell-based, human. Particulars: primary screen; NAMEC8-SERPINE1prom-Luc cells grown 3 days with compound; relative to DMSO. The text has this: pGreenFire1-mCMV was cut using ClaI and SpeI and gel purified. Promoter sequences of genes Zeb1, Serpine1, CDH1, CD24, CD44, CD166 were amplified from human genomic DNA with pre-designed primers containing ClaI and SpeI restriction cut sites using AccuPrime Taq DNA Polymerase (Thermo Fisher Scientific). PCR products were then digested with restriction enzymes and gel-purified. Vector was ligated with PCR insert using Quick Ligase (Fermentas) and transformed into Stb12 competent cells. Colonies were picked and inoculated into TB media with ampicillin. Plasmids were then isolated using a plasmid miniprep kit (Qiagen) and sent for sequencing (1 stBASE Laboratories). […]
Stock plates of compound libraries were kindly prepared by GIS CHiP facility at 1 mM concentration in DMSO. […] Cells were then grown for 3 days and promoter-luciferase activity was measured using the Dual-Glo Luciferase System (Promega).
Assay was carried out according to manufacturer's instructions. […] Firefly luciferase activity was determined by adding 30 μl Dual-Glo Luciferase substrate (Promega) to the wells and incubated for 10 min before measuring luminescence using a TECAN M1000 Pro plate reader. 15 μl Dual-Glo Stop & Glo substrate was then added to the wells, incubated for 10 min and measuring luminescence on the plate reader to determine Renilla luciferase activity. […]

Assay [2] has as its system NAMEC8-SERPINE1prom-Luc cells. The experiment in a line: Renilla-luciferase (constitutive CMV promoter) readout for cell numbers. The format is cell-based, human. Particulars: primary screen; Renilla as readout for cell numbers; relative to DMSO.

As to `Cc1ccccc1-n1c(Cn2nc(-c3cccc(O)c3)c3c(N)ncnc32)nc2cccc(C)c2c1=O` [PIK-294], the “Avr FF/Renilla from DMSO” value in assay [1] was determined as 0.68. For the same molecule, in assay [2], the “% Avr Renilla from DMSO” value came to 81.52%.
